{
  "source": "PubChem BioAssay AID188",
  "about": "(DTP/NCI, 2004)",
  "test_system": "CD2F1 mice, nontumored, toxicity/survival",
  "assay": "NCI In Vivo Anticancer Drug Screen. Data for tumor model Nontumored Animals (Toxicity Test) in CD2F1 (CDF1) mice",
  "note": "Values are animals surviving of animals treated; these mice carried no tumour. Survivors were counted at the toxicity check, usually on the fifth day, unless a day is given; later deaths do not show. Schedules are NCI's codes, taken here to give the interval after Q, in days (D) or hours (H), and the number of doses after X. Some structures stand for samples that the source files as different forms (salt, stereo form or complex); doses refer to the form tested. Some entries were tested several times; the values are given in rising order.",
  "data": [
    {"smiles": "Cc1cc(NCCCCCCNc2cc(C)nc3ccc(N)cc23)c2cc(N)ccc2n1", "values": [
      {"measurement": "survivor count", "setting": "dose: 1.1 mg/kg/injection, schedule: Q01DX005 (iv), vehicle: water", "result": "8 of 8"},
      {"measurement": "survivor count", "setting": "dose: 1.2 mg/kg/injection, schedule: Q01DX009 (ip), vehicle: saline with Tween-80", "result": "8 of 8"},
      {"measurement": "survivor count", "setting": "dose: 1.4 mg/kg/injection, schedule: Q01DX005 (iv), vehicle: water", "result": "8 of 8"},
      {"measurement": "survivor count", "setting": "dose: 1.56 mg/kg/injection, schedule: Q01DX009 (ip), vehicle: water", "result": "8 of 8"},
      {"measurement": "survivor count", "setting": "dose: 1.9 mg/kg/injection, schedule: Q01DX005 (iv), vehicle: water", "result": "8 of 8"},
      {"measurement": "survivor count", "setting": "dose: 1.94 mg/kg/injection, schedule: Q01DX005 (iv), vehicle: saline with Tween-80", "result": "10 of 10"},
      {"measurement": "survivor count", "setting": "dose: 1.94 mg/kg/injection, schedule: Q01DX009 (ip), vehicle: saline with Tween-80", "result": "10 of 10"},
      {"measurement": "survivor count", "setting": "dose: 1.94 mg/kg/injection, schedule: Q01DX009 (sc), vehicle: saline with Tween-80", "result": "10 of 10"},
      {"measurement": "survivor count", "setting": "dose: 2.4 mg/kg/injection, schedule: Q01DX009 (ip), vehicle: saline with Tween-80", "result": "8 of 8"},
      {"measurement": "survivor count", "setting": "dose: 2.5 mg/kg/injection, schedule: Q01DX005 (iv), vehicle: water", "result": "8 of 8"},
      {"measurement": "survivor count", "setting": "dose: 2.53 mg/kg/injection, schedule: Q01DX005 (iv), vehicle: water", "result": "10 of 10"},
      {"measurement": "survivor count", "setting": "dose: 2.53 mg/kg/injection, schedule: Q01DX009 (ip), vehicle: water", "result": "10 of 10"},
      {"measurement": "survivor count", "setting": "dose: 2.53 mg/kg/injection, schedule: Q01DX009 (sc), vehicle: water", "result": "10 of 10"},
      {"measurement": "survivor count", "setting": "dose: 2.58 mg/kg/injection, schedule: Q01DX005 (iv), vehicle: saline with Tween-80", "result": "10 of 10"},
      {"measurement": "survivor count", "setting": "dose: 2.58 mg/kg/injection, schedule: Q01DX009 (ip), vehicle: saline with Tween-80", "result": "10 of 10 and 8 of 8"},
      {"measurement": "survivor count", "setting": "dose: 2.58 mg/kg/injection, schedule: Q01DX009 (sc), vehicle: saline with Tween-80", "result": "10 of 10"},
      {"measurement": "survivor count", "setting": "dose: 3.13 mg/kg/injection, schedule: Q01DX009 (ip), vehicle: water", "result": "8 of 8"},
      {"measurement": "survivor count", "setting": "dose: 3.38 mg/kg/injection, schedule: Q01DX005 (iv), vehicle: water", "result": "8 of 10"},
      {"measurement": "survivor count", "setting": "dose: 3.38 mg/kg/injection, schedule: Q01DX009 (ip), vehicle: water", "result": "10 of 10"},
      {"measurement": "survivor count", "setting": "dose: 3.38 mg/kg/injection, schedule: Q01DX009 (sc), vehicle: water", "result": "10 of 10"},
      {"measurement": "survivor count", "setting": "dose: 3.4 mg/kg/injection, schedule: Q01DX005 (iv), vehicle: water", "result": "8 of 8"},
      {"measurement": "survivor count", "setting": "dose: 3.44 mg/kg/injection, schedule: Q01DX005 (iv), vehicle: saline with Tween-80", "result": "10 of 10"},
      {"measurement": "survivor count", "setting": "dose: 3.44 mg/kg/injection, schedule: Q01DX009 (ip), vehicle: saline with Tween-80", "result": "10 of 10"},
      {"measurement": "survivor count", "setting": "dose: 3.44 mg/kg/injection, schedule: Q01DX009 (sc), vehicle: saline with Tween-80", "result": "10 of 10"},
      {"measurement": "survivor count", "setting": "dose: 4.5 mg/kg/injection, schedule: Q01DX005 (iv), vehicle: water", "result": "5 of 8"},
      {"measurement": "survivor count", "setting": "dose: 4.51 mg/kg/injection, schedule: Q01DX005 (iv), vehicle: water", "result": "2 of 10"},
      {"measurement": "survivor count", "setting": "dose: 4.51 mg/kg/injection, schedule: Q01DX009 (ip), vehicle: water", "result": "10 of 10"},
      {"measurement": "survivor count", "setting": "dose: 4.51 mg/kg/injection, schedule: Q01DX009 (sc), vehicle: water", "result": "10 of 10"},
      {"measurement": "survivor count", "setting": "dose: 4.59 mg/kg/injection, schedule: Q01DX005 (iv), vehicle: saline with Tween-80", "result": "10 of 10"},
      {"measurement": "survivor count", "setting": "dose: 4.59 mg/kg/injection, schedule: Q01DX009 (ip), vehicle: saline with Tween-80", "result": "10 of 10"},
      {"measurement": "survivor count", "setting": "dose: 4.59 mg/kg/injection, schedule: Q01DX009 (sc), vehicle: saline with Tween-80", "result": "10 of 10"},
      {"measurement": "survivor count", "setting": "dose: 4.7 mg/kg/injection, schedule: Q01DX009 (ip), vehicle: saline with Tween-80", "result": "8 of 8"},
      {"measurement": "survivor count", "setting": "dose: 6.0 mg/kg/injection, schedule: Q01DX005 (iv), vehicle: water", "result": "1 of 8"},
      {"measurement": "survivor count", "setting": "dose: 6.01 mg/kg/injection, schedule: Q01DX005 (iv), vehicle: water", "result": "0 of 10"},
      {"measurement": "survivor count", "setting": "dose: 6.01 mg/kg/injection, schedule: Q01DX009 (ip), vehicle: water", "result": "10 of 10"},
      {"measurement": "survivor count", "setting": "dose: 6.01 mg/kg/injection, schedule: Q01DX009 (sc), vehicle: water", "result": "10 of 10"},
      {"measurement": "survivor count", "setting": "dose: 6.12 mg/kg/injection, schedule: Q01DX005 (iv), vehicle: saline with Tween-80", "result": "10 of 10"},
      {"measurement": "survivor count", "setting": "dose: 6.12 mg/kg/injection, schedule: Q01DX009 (ip), vehicle: saline with Tween-80", "result": "10 of 10"},
      {"measurement": "survivor count", "setting": "dose: 6.12 mg/kg/injection, schedule: Q01DX009 (sc), vehicle: saline with Tween-80", "result": "10 of 10 and 8 of 8"},
      {"measurement": "survivor count", "setting": "dose: 6.25 mg/kg/injection, schedule: Q01DX009 (ip), vehicle: water", "result": "8 of 8"},
      {"measurement": "survivor count", "setting": "dose: 8.0 mg/kg/injection, schedule: Q01DX005 (iv), vehicle: water", "result": "1 of 8"},
      {"measurement": "survivor count", "setting": "dose: 8.01 mg/kg/injection, schedule: Q01DX005 (iv), vehicle: water", "result": "0 of 10"},
      {"measurement": "survivor count", "setting": "dose: 8.01 mg/kg/injection, schedule: Q01DX009 (ip), vehicle: water", "result": "10 of 10"},
      {"measurement": "survivor count", "setting": "dose: 8.01 mg/kg/injection, schedule: Q01DX009 (sc), vehicle: water", "result": "10 of 10"},
      {"measurement": "survivor count", "setting": "dose: 8.2 mg/kg/injection, schedule: Q01DX005 (iv), vehicle: saline with Tween-80", "result": "10 of 10"},
      {"measurement": "survivor count", "setting": "dose: 8.2 mg/kg/injection, schedule: Q01DX009 (ip), vehicle: saline with Tween-80", "result": "10 of 10"},
      {"measurement": "survivor count", "setting": "dose: 8.2 mg/kg/injection, schedule: Q01DX009 (sc), vehicle: saline with Tween-80", "result": "10 of 10"}
    ]}
  ]
}
